# From publication doi:10.1101/2025.06.12.659430
# The chains behind the UniProt entries cited, without tags or fusion partners. Residues count along the entry.
# UniProt P09429: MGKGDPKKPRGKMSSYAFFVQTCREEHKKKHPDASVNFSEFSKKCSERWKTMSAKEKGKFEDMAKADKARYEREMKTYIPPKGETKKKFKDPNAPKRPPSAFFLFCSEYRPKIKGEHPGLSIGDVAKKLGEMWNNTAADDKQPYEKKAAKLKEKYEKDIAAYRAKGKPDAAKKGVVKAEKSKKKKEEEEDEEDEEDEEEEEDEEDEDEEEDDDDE
# UniProt O00206, residues 24-631: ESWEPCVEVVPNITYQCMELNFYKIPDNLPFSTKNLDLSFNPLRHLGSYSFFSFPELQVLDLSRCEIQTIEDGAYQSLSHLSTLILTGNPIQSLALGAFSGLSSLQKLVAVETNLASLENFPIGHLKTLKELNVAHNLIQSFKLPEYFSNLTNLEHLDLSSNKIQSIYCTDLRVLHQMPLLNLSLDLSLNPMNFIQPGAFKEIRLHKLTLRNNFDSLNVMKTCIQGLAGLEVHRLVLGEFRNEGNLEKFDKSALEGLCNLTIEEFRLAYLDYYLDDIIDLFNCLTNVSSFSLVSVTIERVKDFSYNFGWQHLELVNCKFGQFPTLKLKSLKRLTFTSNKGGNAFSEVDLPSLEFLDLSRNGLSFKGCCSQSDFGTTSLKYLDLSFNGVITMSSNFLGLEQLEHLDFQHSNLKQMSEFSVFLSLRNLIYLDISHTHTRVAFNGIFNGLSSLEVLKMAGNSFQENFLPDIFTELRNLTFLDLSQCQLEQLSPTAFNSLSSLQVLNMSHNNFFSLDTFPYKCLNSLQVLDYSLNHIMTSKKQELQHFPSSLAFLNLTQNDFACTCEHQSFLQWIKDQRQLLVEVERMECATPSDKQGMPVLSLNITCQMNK
# Results are given in words; binding and its absence hold for the method and conditions named. Some results given as binding are weak or reduced against the parent protein; the word gives no strength.
# Biological target: Disulfide HMGB1 (dsHMGB1, HMGBiotech, HM-120) (UniProt P09429)
# Test: ELISA
substance,measurement,value
"human TLR4 (1478-TR-050, R&D), peroxidase-labeled (from UniProt O00206) (receptor)",binding,binds
